SMILES strings stand for the structures. No dose or concentration is given here for some results.

The data set relates to engineered cell lines. In words: Selectivity across the panel of engineered cell lines (calcein AM). The format is cell-based, human. As to conditions: from selectivity ratio for each subsequent pair of cell lines in a series.
For the compound `CC[C@@]1(O)C(=O)OCc2c1cc1n(c2=O)Cc2cc3ccccc3nc2-1` [Camptothecin], the “Genetic basis of Selectivity” value is “RAS^v12/PP2A/”.

As to `COc1cccc2c1C(=O)c1c(O)c3c(c(O)c1C2=O)C[C@@](O)(C(C)=O)C[C@@H]3O[C@H]1C[C@H](N)[C@H](O)[C@H](C)O1` [Daunorubicin], the “Genetic basis of Selectivity” value is recorded as “TERT/RB”.

With `COc1cccc2c1C(=O)c1c(O)c3c(c(O)c1C2=O)C[C@@](O)(C(=O)CO)C[C@@H]3O[C@H]1C[C@H](N)[C@H](O)[C@H](C)O1` [Doxorubicin], the “Genetic basis of Selectivity” value is “TERT/RB”.

As to `O=C1c2c(O)ccc(O)c2C(=O)c2c(NCCNCCO)ccc(NCCNCCO)c21` [Mitoxantrone], the “Genetic basis of Selectivity” value is on record as “TERT/RB”.
